What was measured:
[1] = tested on: HeLa cells (cervical adenocarcinoma); experiment: MTT assay; type: cell-based, human; settings: IC50 MRC-5 / IC50 HeLa
[2] = tested on: HCT 116 cells (colon cancer); experiment: MTT assay; type: cell-based, human

usnic acid
SI (selectivity index) ([1]; 24 h): 0.36 | SI (selectivity index) ([1]; 48 h): 0.41 | SI (selectivity index) ([1]; 72 h): 0.38 | SI (selectivity index) ([2]; IC50 MRC-5 / IC50 HCT 116, 24 h): 0.62 | SI (selectivity index) ([2]; IC50 MRC-5 / IC50 HCT 116, 48 h): 0.93 | SI (selectivity index) ([2]; IC50 MRC-5 / IC50 HCT 116, 72 h): 2.23
